These are yes or no findings as the source states them, for the method shown. In cells and extracts the contact can be indirect. These calls come from enrichment with a bait or labelling near it, and not all partners need be listed. A no says only that the protein was not detected with the bait. Sequences can lack the tags named with a protein.
T1: claudin-like apicomplexan microneme protein (CLAMP) fused to a 3xFlag tag (P. berghei)
T1 sequence: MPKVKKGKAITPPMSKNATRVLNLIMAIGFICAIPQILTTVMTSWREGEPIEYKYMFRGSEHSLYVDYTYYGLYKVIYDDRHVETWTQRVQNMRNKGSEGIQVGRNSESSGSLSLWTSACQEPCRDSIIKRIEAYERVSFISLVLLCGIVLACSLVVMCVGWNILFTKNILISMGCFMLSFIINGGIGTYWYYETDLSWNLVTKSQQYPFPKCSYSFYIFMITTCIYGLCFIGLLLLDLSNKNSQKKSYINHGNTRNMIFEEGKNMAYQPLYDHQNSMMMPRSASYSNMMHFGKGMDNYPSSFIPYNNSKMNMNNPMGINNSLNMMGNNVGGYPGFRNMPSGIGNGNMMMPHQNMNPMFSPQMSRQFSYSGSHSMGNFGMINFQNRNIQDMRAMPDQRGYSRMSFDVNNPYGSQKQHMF

Chains of the proteins cited; added tags and fusions are not shown. Lines headed by an entry give the natural chain unless they say otherwise; changes in a name come on top.
UniProt A0A509AC23: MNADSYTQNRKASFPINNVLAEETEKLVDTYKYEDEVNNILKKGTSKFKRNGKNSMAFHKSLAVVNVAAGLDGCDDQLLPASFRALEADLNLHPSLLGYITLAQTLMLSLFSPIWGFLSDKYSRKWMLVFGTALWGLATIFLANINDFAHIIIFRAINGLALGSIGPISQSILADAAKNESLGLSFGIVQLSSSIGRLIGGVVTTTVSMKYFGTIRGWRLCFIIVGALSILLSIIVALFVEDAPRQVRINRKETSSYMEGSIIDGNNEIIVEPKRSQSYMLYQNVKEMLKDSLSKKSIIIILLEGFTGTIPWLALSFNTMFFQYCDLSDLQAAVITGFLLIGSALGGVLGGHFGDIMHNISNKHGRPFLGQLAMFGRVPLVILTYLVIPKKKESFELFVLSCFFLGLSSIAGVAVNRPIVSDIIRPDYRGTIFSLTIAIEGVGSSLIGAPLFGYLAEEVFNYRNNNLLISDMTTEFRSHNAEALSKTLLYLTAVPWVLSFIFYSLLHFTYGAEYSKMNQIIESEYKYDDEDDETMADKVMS

B1: thrombospondin-related anonymous protein (TRAP, PBANKA_1349800) (protein, UniProt A0A509AST0 25-606)
chain: QEILDEIKYSEEVCNEQIDLHILLDGSGSIGHSNWISHVIPMLTTLVDNLNISRDEINISMTLFSTYARELVRLKRYGSTSKASLRFIIAQLQNNYSPHGTTNLTSALLNVDNLIQKKMNRPNAIQLVIILTDGIPNNLKKSTTVVNQLKKKDVNVAIIGVGAGVNNMFNRILVGCGKLGPCPYYSYGSWDQAQTMIKPFLSKVCQEVEKVALCGKWEEWSECSTTCDNGTKIRKRKVLHPNCAGEMTAPCKVRDCPPKPVAPPVIPIKVPDVPVKPVEPIEPAEPAEPAEPAEPAEPAEPAEPAEPAEPAEPAEPAEPAEPAEPAEPAEPAEPAEPAEPAKPAEPAEPAEPAEPAEPVNPDNPILPIKPEEPSGGAEPLNPEVENPFIIPDEPIEPIIAPGAVPDKPIIPEESNELPNNLPESPSDSQVEYPRPNDNGDNSNNTINSNKNIPNKHVPPTDDNPYKGQEERIPKPHRSNDEYIYYNNANNNDKLEPEIPSKDYEENKSKKQSKSNNGYKIAGGIIGGLAIIGCIGVGYNFIAGSSAAAMAGEAAPFEDVMADDEKGIVENEQFKLPEDNDWN

target: T1, claudin-like apicomplexan microneme protein (CLAMP) fused to a 3xFlag tag (P. berghei); experiment: affinity purification with mass spectrometry; anti-FLAG M2 Affinity Gel IP of CLAMP-Flag, 2h at 4°C, from two independent lysates of untreated clampcKO salivary gland sporozoites (10mM Tris pH 7.5, 150mM NaCl, 0.5 mM EDTA, 0.5% NP40); control: untagged PbGFP sporozoite lysates; timsTOF PRO mass spectrometry

**Q.** “putative pantothenate transporter (PAT, PBANKA_0303900) (from UniProt A0A509AC23)” was tested. Which binding did it give?
**A.** The binding was “binds”.

**Q.** “elongation factor 1-alpha (PBANKA_1133300) (P. berghei (endogenous in sporozoites))” was tested. Which binding did it give?
**A.** The binding was “no binding”.

**Q.** B1 was tested. Which binding did it give?
**A.** Its binding is “binds”.

Reference: article PMC10047546
